This note sets out measurements from patent publication US20130123281A1, “Compositions and Methods for Inhibition of TBL-1 Binding to Disease-Associated Molecules” (BETA CAT PHARMACEUTICALS, LLC, priority 2011, published 2013).

Sequences of proteins named here, by UniProt entry; tags and fusion partners are left off.
UniProt O60907, whole entry: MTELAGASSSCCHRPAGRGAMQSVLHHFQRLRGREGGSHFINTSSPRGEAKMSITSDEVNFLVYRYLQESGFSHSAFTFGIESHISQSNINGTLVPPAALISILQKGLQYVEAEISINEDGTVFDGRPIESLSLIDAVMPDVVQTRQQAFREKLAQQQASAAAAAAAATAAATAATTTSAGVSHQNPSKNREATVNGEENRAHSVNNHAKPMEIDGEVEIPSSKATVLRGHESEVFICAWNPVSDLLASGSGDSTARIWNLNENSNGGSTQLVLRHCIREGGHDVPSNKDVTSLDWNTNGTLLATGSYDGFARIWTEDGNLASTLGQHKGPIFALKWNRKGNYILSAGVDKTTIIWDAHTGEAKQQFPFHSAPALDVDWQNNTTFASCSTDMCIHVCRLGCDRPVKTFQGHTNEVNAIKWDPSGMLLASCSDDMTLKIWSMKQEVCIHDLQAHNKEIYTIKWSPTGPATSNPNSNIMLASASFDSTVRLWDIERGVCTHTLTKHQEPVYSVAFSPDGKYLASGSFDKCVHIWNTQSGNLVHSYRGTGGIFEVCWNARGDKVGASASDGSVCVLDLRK

The target of assay [1] is TBL1 (Homo sapiens, UniProt O60907). As to the kind of experiment: TBL1 inhibition (Table 5). Particulars: read-out: EC50 μM TBL1. It is filed as binding. As to the method: Briefly, for homologous competitive assay, a single concentration of 50 nM of biotinylated compound was added to the wells containing TBL1 recombinant protein, in the presence of various concentrations of unlinked compound (range of 0.1 nM to 10 μM) diluted in binding buffer. The sealed plate was incubated for 2 h at RT, and then processed as described above. For the heterologous competitive binding assay, 75 nM of β-catenin was used in place of the biotinylated compound, and the bounded protein was detected by anti-β-catenin antibody (Cell Signaling Tech) followed by secondary HRP-conjugated antibody.
To determine whether the ability of BC2059 to interfere with TBL1:β-catenin complex formation is due to direct interaction between TBL1 or β-catenin and the compound, we performed saturation binding assays in a in vitro system. […] The sealed plate was incubated for 2 h at RT, washed 3 times with PBS 0.05% Tween-20, and then the bounded compound was detected by streptavidin-HRP conjugated antibody (Cell Signaling Tech) diluted in blocking buffer. Elisa was developed by addition of ABTS HRP substrate (SIGMA), and the optical density (OD) for each well was read with a microplate reader set to 405 nm. […]

Assay [2] concerns the target TBL1:β-catenin complex (Homo sapiens, UniProt O60907). The assay can be described thus: Sandwich ELISA capturing the TBL1:β-catenin complex from treated cell lysates. It is filed as cell-based. The following applies: read-out: EC50 μM TBL1: β-Catenine, compound 0.3 nM to 3 μM for 6 h. As to the method:
HCT 15 cells are incubated with 20 mM LiCl to induce the Wnt pathway. After 24 h fresh medium with 20 mM LiCl and test agent is added at concentration in the range of 0.3 nM to 3 μM for 6 hours at 37° C. Protein lysates are prepared from cells lysed in RIPA buffer containing protease inhibitors, High affinity binding Sandwich Elisa assays were prepared in 96 well Maxisorp plates (NUNC) by coating with 100 μl in each well of unlabeled capture TBL1 antibody (Santa Cruz Biotech) diluted to a final concentration of 2 ug/ml in carbonate/bicarbonate coating buffer, and incubated 18 hours at 4° C. […] The sealed plate was incubated for 2 h at RT, washed 3 times with PBS 0.05% Tween-20, and then the complex and the recombinant protein was detected by antibody against β-catenin (Cell Signaling Tech) and secondary antibody HRP-conjugated (Sigma). Signal was detected by addition of ABTS HRP substrate
(SIGMA), and read with a microplate reader set to 405 nm.
To determine the amount of β-catenin captured, a standard curve was created using recombinant β-catenin (100 fg to 100 ng, Abnova) added instead of cell lysates in the above procedure. Intensity of signal was compared to values generated using test article treated lysates and approximate amount of bound beta catenin determined. […]

Assay [3] concerns HCT116 cells. As to the kind of experiment: Cell screening in HCT116 cells (Table 5). Format: cell-based. The following applies: read-out: EC50 μM HCT116 CELLS.

Structures are written as SMILES. The structures given here were assigned with low confidence; some may be wrong.

Usually EC50 stands for the concentration at which the effect is half-maximal. On to `Cc1nn(C)cc1-c1cccc(N(C)Cc2ccc(-n3cccn3)cc2)c1`, for which the EC50 in assay [1] stood at 0.22 µM; in assay [2], 0.21 µM; in assay [3] it was 0.0843 µM.
